Test results from paper PMC3713010.
The exact form of at least one protein or probe is not confirmed. For some of these results: At least one verdict was read from the data and is not stated in words by the source. For some of these results: Whether high values mean tight binding is not given here for every scale. For some of these results: Tags and fusion partners may be left off the protein sequences shown.

Chains of the proteins cited; added tags and fusions are not shown. Lines headed by an entry give the natural chain unless they say otherwise; changes in a name come on top. Residues count along the entry.
UniProt P63015, 190-289: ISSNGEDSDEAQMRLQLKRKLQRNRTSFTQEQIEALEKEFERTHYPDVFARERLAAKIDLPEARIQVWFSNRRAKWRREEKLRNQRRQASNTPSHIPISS
UniProt P48432: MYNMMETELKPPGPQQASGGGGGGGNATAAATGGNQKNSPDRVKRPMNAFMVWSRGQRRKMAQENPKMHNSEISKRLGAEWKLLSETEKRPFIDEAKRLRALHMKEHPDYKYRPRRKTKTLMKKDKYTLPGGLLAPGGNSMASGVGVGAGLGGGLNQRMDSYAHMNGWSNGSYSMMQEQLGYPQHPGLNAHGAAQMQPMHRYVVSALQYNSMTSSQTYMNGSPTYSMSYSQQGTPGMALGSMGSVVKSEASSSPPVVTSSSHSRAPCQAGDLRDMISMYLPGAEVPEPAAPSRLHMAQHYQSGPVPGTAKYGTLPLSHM

How the values were obtained:
Test in all cases: EMSA
[1] = target: Pax6 DNA-binding domain (BD-Pax6) (Mus musculus (B6)) (UniProt P63015); conditions: EMSA: 20 ng GST-fusion protein, 20 mM HEPES pH 7.8, 45 mM KCl, 10 mM NaCl, 1 mM EDTA, 1 mM DTT, 10% glycerol, 0.2 ug/uL BSA, 0.1% NP-40, 50 ng poly-dIdC; recombinant protein; protein details: GST (N-terminal, pGEX-6P-1); label: 32P
Sox2 (Mus musculus (B6)) = Sox2 (Mus musculus (B6)) (UniProt P48432); conditions: EMSA: 20 ng GST-fusion protein, 20 mM HEPES pH 7.8, 45 mM KCl, 10 mM NaCl, 1 mM EDTA, 1 mM DTT, 10% glycerol, 0.2 ug/uL BSA, 0.1% NP-40, 50 ng poly-dIdC; recombinant protein; residues 1-319; protein details: GST (N-terminal, pGEX-6P-1); label: 32P
[2] = target: T1, Brn2 DNA-binding domain (BD-Brn2) (Mus musculus (B6)) (UniProt P31360); conditions: EMSA: 20 ng GST-fusion protein, 20 mM HEPES pH 7.8, 45 mM KCl, 10 mM NaCl, 1 mM EDTA, 1 mM DTT, 10% glycerol, 0.2 ug/uL BSA, 0.1% NP-40, 50 ng poly-dIdC; recombinant protein; protein details: GST (N-terminal, pGEX-6P-1); label: 32P
T1 sequence (looked up, limits assumed): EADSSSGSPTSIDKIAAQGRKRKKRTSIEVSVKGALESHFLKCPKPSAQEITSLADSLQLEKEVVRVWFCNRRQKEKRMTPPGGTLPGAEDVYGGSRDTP

Sequence	binding signal (fold of positive control) [1]	binding result (Sox2 (Mus musculus (B6)))	binding signal (fold of positive control) [2]
GGGAAATATTCATTGTTGTTGCTCACCTACCATGGA (double strand) [Sox2-Pax6 consensus probe]	1	binds	–
GGGTAGTGTGGACAAAAGGCAATAATTAGCATGAGAATC (double strand) [Sox2-Brn2 consensus probe]	–	binds	1
